Values of other authors, collected in patent publication US5354758A, “Benzomorphans useful as NMDA receptor antagonists” (priority 1992, dated 1994).
The match of structure and compound is tentative.

The chains behind the UniProt entries cited, without tags or fusion partners.
UniProt P33535, whole entry: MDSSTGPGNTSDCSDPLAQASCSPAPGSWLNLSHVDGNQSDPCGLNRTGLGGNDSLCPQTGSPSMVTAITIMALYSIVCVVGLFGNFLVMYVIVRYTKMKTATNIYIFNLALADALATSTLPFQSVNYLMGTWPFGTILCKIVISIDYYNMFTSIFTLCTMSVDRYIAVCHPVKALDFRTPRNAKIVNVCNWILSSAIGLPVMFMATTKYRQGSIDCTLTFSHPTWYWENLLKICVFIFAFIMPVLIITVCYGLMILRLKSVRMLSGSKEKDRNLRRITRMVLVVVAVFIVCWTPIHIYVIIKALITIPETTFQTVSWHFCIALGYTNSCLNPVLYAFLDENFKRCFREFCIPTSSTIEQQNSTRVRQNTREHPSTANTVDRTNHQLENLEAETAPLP

Molecular target: μ-site of opioid receptor (Rattus norvegicus, UniProt P33535)
Conditions: shown previously; tested as the radiolabelled form; cited from earlier work

Compound: C[C@@H](NC(=O)[C@@H](N)Cc1ccc(O)cc1)C(=O)NCC(=O)N(C)[C@@H](Cc1ccccc1)C(=O)NCCO
- high-affinity ligand at the μ site of the opioid receptor: high-affinity
